Some of the results follow.

Sequences of proteins named here, by UniProt entry; tags and fusion partners are left off. A change or cut given only in a name is not applied to a line headed by its entry.
UniProt O00571: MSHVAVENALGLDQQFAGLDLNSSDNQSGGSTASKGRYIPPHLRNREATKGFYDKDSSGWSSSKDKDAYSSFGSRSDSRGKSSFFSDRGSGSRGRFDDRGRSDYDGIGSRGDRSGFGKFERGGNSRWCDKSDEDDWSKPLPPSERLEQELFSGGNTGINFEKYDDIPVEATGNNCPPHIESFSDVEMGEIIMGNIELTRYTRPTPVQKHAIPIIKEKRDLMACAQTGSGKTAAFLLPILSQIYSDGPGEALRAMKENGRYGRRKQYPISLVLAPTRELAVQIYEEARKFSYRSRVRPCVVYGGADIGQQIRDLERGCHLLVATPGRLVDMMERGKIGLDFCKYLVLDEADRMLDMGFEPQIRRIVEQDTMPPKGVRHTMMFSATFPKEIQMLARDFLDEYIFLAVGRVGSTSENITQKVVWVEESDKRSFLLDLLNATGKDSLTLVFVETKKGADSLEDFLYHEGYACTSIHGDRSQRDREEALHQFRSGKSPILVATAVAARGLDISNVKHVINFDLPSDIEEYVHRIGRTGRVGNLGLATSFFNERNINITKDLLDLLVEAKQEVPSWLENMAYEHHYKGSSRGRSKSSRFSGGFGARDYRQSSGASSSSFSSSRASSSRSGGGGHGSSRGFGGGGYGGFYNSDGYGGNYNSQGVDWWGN
UniProt Q92499: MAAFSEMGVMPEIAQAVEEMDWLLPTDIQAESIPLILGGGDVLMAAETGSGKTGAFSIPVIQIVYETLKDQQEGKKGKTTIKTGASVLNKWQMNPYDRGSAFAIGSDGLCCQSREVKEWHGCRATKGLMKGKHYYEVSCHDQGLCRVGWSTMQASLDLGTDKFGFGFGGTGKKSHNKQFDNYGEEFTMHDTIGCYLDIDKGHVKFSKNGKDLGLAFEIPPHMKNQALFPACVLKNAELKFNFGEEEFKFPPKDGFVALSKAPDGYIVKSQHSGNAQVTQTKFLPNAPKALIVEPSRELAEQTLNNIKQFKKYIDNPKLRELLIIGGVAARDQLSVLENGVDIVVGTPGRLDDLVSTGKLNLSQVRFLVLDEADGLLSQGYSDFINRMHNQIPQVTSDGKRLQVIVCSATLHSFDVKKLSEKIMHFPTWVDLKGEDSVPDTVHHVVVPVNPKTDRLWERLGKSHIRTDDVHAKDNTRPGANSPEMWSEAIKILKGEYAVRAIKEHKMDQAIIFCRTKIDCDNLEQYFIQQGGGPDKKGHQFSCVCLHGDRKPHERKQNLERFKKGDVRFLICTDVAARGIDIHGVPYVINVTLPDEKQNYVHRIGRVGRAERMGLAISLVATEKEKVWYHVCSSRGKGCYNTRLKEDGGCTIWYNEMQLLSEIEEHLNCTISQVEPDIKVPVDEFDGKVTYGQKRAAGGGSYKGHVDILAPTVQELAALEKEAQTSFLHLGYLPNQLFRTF
UniProt Q9H8H2: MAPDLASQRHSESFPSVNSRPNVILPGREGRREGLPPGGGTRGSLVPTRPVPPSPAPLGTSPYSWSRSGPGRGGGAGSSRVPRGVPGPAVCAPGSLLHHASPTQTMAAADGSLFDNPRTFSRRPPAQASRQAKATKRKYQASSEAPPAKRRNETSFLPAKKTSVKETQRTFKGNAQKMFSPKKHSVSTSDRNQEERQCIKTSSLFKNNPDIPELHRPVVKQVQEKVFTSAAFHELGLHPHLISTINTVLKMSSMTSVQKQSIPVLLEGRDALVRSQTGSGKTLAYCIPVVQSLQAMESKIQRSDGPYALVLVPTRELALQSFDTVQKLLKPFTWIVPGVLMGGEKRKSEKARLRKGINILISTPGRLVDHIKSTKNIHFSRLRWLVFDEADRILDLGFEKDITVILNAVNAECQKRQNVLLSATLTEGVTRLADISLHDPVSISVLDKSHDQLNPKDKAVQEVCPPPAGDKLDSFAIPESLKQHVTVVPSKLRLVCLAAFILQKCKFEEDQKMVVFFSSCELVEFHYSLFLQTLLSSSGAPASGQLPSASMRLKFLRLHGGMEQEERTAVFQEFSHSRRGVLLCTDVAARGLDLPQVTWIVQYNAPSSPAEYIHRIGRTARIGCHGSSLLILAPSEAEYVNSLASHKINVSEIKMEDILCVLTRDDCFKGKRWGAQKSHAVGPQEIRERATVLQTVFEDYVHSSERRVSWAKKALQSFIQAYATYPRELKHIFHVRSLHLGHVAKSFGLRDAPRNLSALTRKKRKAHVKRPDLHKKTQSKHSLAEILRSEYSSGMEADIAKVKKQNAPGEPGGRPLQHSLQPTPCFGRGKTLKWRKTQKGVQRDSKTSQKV
UniProt Q86XP3: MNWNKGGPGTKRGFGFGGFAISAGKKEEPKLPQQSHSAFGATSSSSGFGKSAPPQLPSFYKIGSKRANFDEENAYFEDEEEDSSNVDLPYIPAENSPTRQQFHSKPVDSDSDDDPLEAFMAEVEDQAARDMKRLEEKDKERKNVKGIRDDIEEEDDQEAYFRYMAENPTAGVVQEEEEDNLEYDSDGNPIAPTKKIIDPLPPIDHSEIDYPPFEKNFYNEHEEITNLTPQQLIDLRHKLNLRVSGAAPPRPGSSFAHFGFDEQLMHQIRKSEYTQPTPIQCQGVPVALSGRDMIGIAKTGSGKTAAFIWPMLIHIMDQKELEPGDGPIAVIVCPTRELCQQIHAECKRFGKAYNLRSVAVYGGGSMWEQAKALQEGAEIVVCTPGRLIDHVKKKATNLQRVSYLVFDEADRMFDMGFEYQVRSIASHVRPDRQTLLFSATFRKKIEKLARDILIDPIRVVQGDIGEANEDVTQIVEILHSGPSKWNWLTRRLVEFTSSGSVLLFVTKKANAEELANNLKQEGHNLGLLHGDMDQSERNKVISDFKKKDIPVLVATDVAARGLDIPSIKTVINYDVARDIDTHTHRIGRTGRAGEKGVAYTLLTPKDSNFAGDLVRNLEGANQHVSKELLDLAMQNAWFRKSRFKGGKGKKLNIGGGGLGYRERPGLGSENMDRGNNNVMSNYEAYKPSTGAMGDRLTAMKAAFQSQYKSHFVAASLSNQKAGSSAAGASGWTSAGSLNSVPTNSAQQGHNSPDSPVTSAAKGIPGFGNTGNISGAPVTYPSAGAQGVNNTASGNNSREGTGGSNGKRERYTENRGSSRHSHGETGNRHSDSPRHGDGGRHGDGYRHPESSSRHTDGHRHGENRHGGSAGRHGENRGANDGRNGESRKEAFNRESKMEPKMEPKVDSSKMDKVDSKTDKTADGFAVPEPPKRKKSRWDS
UniProt O43583: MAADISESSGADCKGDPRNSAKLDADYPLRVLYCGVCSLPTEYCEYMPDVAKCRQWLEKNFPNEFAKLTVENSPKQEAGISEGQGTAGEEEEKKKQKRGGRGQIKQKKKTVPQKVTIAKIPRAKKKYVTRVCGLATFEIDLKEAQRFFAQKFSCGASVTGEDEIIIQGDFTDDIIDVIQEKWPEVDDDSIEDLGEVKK
UniProt A2RUS2: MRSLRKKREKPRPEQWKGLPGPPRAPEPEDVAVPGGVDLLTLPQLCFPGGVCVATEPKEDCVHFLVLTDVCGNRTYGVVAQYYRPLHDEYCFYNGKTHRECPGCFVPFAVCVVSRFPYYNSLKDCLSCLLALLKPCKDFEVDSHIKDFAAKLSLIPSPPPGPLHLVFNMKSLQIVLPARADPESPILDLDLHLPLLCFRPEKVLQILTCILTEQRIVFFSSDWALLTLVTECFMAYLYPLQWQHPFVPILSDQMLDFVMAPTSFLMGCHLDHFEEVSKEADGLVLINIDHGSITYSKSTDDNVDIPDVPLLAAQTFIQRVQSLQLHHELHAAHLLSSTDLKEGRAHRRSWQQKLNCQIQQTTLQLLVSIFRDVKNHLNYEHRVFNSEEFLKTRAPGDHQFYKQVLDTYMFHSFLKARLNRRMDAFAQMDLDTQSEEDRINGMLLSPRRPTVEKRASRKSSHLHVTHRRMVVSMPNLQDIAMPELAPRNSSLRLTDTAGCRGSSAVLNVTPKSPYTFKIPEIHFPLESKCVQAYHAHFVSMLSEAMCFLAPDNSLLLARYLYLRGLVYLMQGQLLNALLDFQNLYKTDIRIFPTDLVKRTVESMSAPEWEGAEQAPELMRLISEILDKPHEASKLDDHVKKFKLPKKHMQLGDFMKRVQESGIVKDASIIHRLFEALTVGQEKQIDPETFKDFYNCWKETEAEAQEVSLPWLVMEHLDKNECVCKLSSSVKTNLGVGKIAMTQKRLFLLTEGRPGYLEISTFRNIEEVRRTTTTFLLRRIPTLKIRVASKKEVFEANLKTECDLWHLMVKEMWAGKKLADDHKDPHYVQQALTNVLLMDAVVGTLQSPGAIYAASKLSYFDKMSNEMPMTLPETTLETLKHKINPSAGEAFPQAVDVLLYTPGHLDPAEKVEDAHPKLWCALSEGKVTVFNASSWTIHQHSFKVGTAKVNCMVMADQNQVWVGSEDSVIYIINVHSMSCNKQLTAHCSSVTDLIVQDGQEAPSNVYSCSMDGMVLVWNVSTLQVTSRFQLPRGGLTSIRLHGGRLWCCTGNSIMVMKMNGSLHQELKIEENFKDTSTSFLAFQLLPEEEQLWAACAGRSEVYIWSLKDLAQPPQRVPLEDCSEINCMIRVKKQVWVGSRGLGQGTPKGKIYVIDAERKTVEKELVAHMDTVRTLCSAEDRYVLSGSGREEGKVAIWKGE
UniProt Q7L014: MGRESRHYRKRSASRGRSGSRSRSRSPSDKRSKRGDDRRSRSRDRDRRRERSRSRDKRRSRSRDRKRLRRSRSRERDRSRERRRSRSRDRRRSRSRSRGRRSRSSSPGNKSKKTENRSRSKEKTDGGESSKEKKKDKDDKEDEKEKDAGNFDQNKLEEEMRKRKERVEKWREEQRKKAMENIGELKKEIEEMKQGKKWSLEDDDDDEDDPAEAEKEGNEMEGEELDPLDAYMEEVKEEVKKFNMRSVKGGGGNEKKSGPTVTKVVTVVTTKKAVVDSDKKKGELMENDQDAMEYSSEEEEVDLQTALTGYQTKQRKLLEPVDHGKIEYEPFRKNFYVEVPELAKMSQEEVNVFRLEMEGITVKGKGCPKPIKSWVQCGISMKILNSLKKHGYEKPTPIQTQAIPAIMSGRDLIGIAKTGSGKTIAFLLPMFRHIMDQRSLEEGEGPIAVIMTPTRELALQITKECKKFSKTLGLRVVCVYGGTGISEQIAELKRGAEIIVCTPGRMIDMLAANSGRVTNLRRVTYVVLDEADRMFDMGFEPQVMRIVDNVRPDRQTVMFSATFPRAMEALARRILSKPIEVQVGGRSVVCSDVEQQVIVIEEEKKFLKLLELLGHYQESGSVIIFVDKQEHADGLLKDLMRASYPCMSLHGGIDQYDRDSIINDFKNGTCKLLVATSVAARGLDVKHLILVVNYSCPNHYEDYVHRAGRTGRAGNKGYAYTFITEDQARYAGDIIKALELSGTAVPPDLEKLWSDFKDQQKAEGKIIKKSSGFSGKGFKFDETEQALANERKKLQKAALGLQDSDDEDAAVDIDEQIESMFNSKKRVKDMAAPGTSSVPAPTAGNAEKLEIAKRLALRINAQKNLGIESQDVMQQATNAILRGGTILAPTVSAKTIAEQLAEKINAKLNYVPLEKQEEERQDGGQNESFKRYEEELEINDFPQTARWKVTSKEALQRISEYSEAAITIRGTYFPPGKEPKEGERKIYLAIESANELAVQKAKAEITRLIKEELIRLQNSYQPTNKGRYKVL
UniProt Q9Y315: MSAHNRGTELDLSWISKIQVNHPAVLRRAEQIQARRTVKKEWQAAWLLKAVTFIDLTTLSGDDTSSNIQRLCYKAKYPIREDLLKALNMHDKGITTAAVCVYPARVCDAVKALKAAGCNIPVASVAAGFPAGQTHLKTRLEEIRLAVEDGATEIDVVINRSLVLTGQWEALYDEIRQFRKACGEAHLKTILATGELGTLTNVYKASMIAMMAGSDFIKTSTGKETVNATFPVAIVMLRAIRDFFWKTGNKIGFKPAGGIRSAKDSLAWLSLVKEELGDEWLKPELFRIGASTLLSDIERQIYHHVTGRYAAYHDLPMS
UniProt Q7Z3D6: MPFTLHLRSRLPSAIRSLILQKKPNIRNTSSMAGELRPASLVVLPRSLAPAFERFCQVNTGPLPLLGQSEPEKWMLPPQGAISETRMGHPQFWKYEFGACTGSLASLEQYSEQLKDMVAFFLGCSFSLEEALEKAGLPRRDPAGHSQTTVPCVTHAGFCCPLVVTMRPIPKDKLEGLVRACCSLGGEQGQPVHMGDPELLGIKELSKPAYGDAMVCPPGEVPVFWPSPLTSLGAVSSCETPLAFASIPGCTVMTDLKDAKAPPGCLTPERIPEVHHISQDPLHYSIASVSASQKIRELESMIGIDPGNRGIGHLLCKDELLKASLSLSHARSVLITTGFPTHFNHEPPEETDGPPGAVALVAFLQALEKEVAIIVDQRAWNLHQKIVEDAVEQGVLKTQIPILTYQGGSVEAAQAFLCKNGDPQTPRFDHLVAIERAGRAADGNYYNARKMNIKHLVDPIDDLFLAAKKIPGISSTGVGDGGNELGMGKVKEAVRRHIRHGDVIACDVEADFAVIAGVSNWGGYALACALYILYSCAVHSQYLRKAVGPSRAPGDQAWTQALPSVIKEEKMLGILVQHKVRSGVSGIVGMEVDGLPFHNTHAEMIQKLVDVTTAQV

This is an account of results in the supplement of paper PMC12067093, “Discovery and optimisation of a covalent ligand for TRIM25 and its application to targeted protein ubiquitination” (Chemical Science, 2025).
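Also: competitive profiling in live THP-1 cells: cysteine peptides tagged with an iodoacetamide desthiobiotin (IA-DTB) probe, intensity after compound treatment relative to DMSO-treated cells.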

Compound in this test: Cc1cc(ccc1-c1ccccc1)C(=O)N1CCCN(CC1)C(=O)CCl [compound 10]
The experiment in a line: probe-labelled cysteine peptide fold change vs DMSO (competition) (log2 fold change); higher = less target engagement (more negative = stronger competition). The settings on record: 50 µM; THP-1; incubation time: 4 h.
For “DDI2_Q5TDH0_34_ALCELESGIPAAESQIVYAERPLTDNHR (UniProt Q5TDH0)”, the “probe-labelled cysteine peptide fold change” value was -0.327.
Regarding “DDX3X_O00571_298_VRPCVVYGGADIGQQIR (UniProt O00571)”, the “probe-labelled cysteine peptide fold change” value is 0.101.
As to “DDX1_Q92499_519_IDCDNLEQYFIQQGGGPDKK (UniProt Q92499)”, the “probe-labelled cysteine peptide fold change” value was -0.14.
Turning to “DEPTOR_Q8TB45_102_GIIHHVCDEHK (UniProt Q8TB45)”, the “probe-labelled cysteine peptide fold change” value is -0.375.
The figure for “DDX31_Q9H8H2_413_DITVILNAVNAECQK (UniProt Q9H8H2)” is 0.157.
As for “DGKZ_Q13574_330_IVVHTPCIEQLEK (UniProt Q13574)”, the “probe-labelled cysteine peptide fold change” value is -0.0271.
For “DDX42_Q86XP3_339+346_ELCQQIHAECK (UniProt Q86XP3)”, the “probe-labelled cysteine peptide fold change” value is -0.047.
With “DDX1_Q92499_406_RLQVIVCSATLHSFDVK (UniProt Q92499)”, the “probe-labelled cysteine peptide fold change” value worked out at 0.166.
For “DGCR8_Q8WYQ5_627_AGLLSPYQILHECLK (UniProt Q8WYQ5)”, the “probe-labelled cysteine peptide fold change” value turned out to be 0.0758.
Regarding “DDX59_Q5T1V6_345_QSSVELCGVK (UniProt Q5T1V6)”, the “probe-labelled cysteine peptide fold change” value stood at 9.67e-05.
As for “DENR_O43583_132_VCGLATFEIDLK (UniProt O43583)”, the “probe-labelled cysteine peptide fold change” value was 0.277.
“DDX42_Q86XP3_333_ELEPGDGPIAVIVCPTR (UniProt Q86XP3)”: the “probe-labelled cysteine peptide fold change” value is 0.124.
Regarding “DDX39A_O00148_197_HFVLDECDK (UniProt O00148)”, the “probe-labelled cysteine peptide fold change” value was found to be 0.0839.
As for “DGKQ_P52824_171_QCHQDGHQDHDTHHHHWR (UniProt P52824)”, the figure is 0.176; as for “DENND1B_Q6P3S1_52_FCFPFDVER (UniProt Q6P3S1)”, 0.0235; as for “DENND3_A2RUS2_499_LTDTAGCR (UniProt A2RUS2)”, -0.918.
As to “DDX39A_O00148_62+86_AIVDCGFEHPSEVQHECIPQAILGMDVLCQAK (UniProt O00148)”, the “probe-labelled cysteine peptide fold change” value came out at 0.0973.
The figure for “DDX60_Q8IY21_1591_VAISPFVCLSGNFDDDLLRLETPNHVTLGTIGVNR (UniProt Q8IY21)” is -0.281.
As for “DDX31_Q9H8H2_624_IGCHGSSLLILAPSEAEYVNSLASHK (UniProt Q9H8H2)”, the “probe-labelled cysteine peptide fold change” value is -0.294.
For the target “DDX46_Q7L014_646_ASYPCMSLHGGIDQYDRDSIINDFK (UniProt Q7L014)”, the “probe-labelled cysteine peptide fold change” value was -0.185.
Turning to “DDX31_Q9H8H2_464_AVQEVCPPPAGDK (UniProt Q9H8H2)”, the “probe-labelled cysteine peptide fold change” value is 0.476.
For the target “DERA_Q9Y315_118_AAGCNIPVASVAAGFPAGQTHLK (UniProt Q9Y315)”, the “probe-labelled cysteine peptide fold change” value is 0.125.
The figure for “DDX39A_O00148_299_CMALAQLLVEQNFPAIAIHR (UniProt O00148)” is 0.289; for “DDX60L_Q5H9U9_1671_DFAFNIQAISDSLSELCENKR (UniProt Q5H9U9)” it is 0.512; for “DDX24_Q9GZR7_620_VLDIMPLTLHACMHQK (UniProt Q9GZR7)” it is 0.133.
“DDX21_Q9NR30_378_KDSEDNPQTLLFSATCPHWVFNVAK (UniProt Q9NR30)”: the “probe-labelled cysteine peptide fold change” value was -0.143.
As for “DDX17_Q92841_199_GGDVCPKPVFAFHHANFPQYVMDVLMDQHFTEPTPIQCQGFPLALSGR (UniProt Q92841)”, the figure is -0.478; as for “DGLUCY_Q7Z3D6-2_165_TTVPCVTHAGFCCPLVVTMRPIPK (UniProt Q7Z3D6)”, -0.4.
As to “DGLUCY_Q7Z3D6_316_GIGHLLCK (UniProt Q7Z3D6)”, the “probe-labelled cysteine peptide fold change” value came to 0.0827.
Regarding “DDX51_Q8N8A6_187_WLAEPNCVR (UniProt Q8N8A6)”, the “probe-labelled cysteine peptide fold change” value was -0.388.
With “DENND3_A2RUS2_723_NECVCK (UniProt A2RUS2)”, the “probe-labelled cysteine peptide fold change” value is -0.337.
As to “DENND3_A2RUS2_801_TECDLWHLMVK (UniProt A2RUS2)”, the “probe-labelled cysteine peptide fold change” value was -0.116.
Turning to “DDX59_Q5T1V6_208_QQLGILVQGQEVTRPIIDFEHCSLPEVLNHNLKK (UniProt Q5T1V6)”, the “probe-labelled cysteine peptide fold change” value is -0.4.
Consider “DDX46_Q7L014_646_ASYPCMSLHGGIDQYDR (UniProt Q7L014)”, for which the “probe-labelled cysteine peptide fold change” value stood at 0.231.
Take “DDX55_Q8NHQ9_161_AEGLDLASCVR (UniProt Q8NHQ9)”: the “probe-labelled cysteine peptide fold change” value was 0.31.
